Reference: PubChem BioAssay AID504786 (Drosophila RNAi Screening Center, 2011)

- Aim: 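Knock-downs reducing HIF reporter induction by the iron chelator DFO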 (primary screen)
- Cell system: Drosophila S2 cells with a stable HIF luciferase reporter
- Reagents: long dsRNA against Drosophila genes, about 0.2 µg dsRNA per well of a 384-well plate
- Time to read-out: three days of knock-down, then 20 h of DFO before reading
- Treatment: desferrioxamine (DFO) at 100 µM, an iron chelator that mimics hypoxia, for 20 h
- Read-out: 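HIF reporter luminescence in cells given 100 µM DFO for 20 h, using the mouse ldh-a hypoxia-response element, scored as per-plate z-scores; higher means greater loss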
- Direction: z-score: higher = stronger loss of HIF reporter signal
The deposit covers about 21,000 reagents; shown is an unselected part of those that have a named target and a result. 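Primary screen; positive scores mean lost reporter signal, so the sign may be inverted from the usual convention.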 Names joined by + are all predicted targets of the reagent. Not all columns of the deposit are shown.

| predicted target | amplicon | z-score, replicate 1 |
| --- | --- | --- |
| lab (labial) | DRSC12627 | -0.2 |
| Acbp3 (Acyl-CoA binding protein 3) | DRSC11022 | -0.2 |
| Spt3 | DRSC15465 | 0.1 |
| Eip63F-1 (Ecdysone-induced protein 63F 1) | DRSC08072 | -0.1 |
| Eip63F-1 (Ecdysone-induced protein 63F 1) | DRSC08659 | -0.3 |
| mRpL39 (mitochondrial ribosomal protein L39) | DRSC10255 | 1.9 |
| Cp36 (Chorion protein 36) | DRSC18452 | -0.3 |
| hoka | DRSC08313 | -0.1 |
| side-VI (sidestep VI) | DRSC12828 | 0.2 |
| side-VI (sidestep VI) | DRSC12830 | 0.3 |
| side-VI (sidestep VI) | DRSC14920 | -0.2 |
| side-VI (sidestep VI) | DRSC15624 | -0.1 |
| CG13501 | DRSC04146 | -0.1 |
| Lon (Lon protease) | DRSC11049 | -0.2 |
| CAH1 + Adat1 | DRSC02009 | -0.4 |
| CG14777 | DRSC18563 | -0.3 |
| Atg10 (Autophagy-related 10) | DRSC06172 | -0.2 |
| disco-r (disco-related) | DRSC20173 | -0.3 |
| disco-r (disco-related) | DRSC20174 | -0.3 |
| CG17826 | DRSC10289 | -0.3 |
| AP-1sigma (Adaptor Protein complex 1, sigma subunit) | DRSC15899 | -0.3 |
| cas (castor) | DRSC12373 | -0.3 |
| CG33170 | DRSC11854 | -0.3 |
| CG6928 | DRSC10749 | 0 |
| CG1695 | DRSC20538 | -0.4 |
| dib (disembodied) | DRSC08711 | -0.3 |
| GC2 | DRSC14476 | -0.1 |
| Dip-C (Dipeptidase C) | DRSC15855 | -0.4 |
| Syx13 (Syntaxin 13) | DRSC09836 | -0.2 |
| eIF4G1 (eukaryotic translation initiation factor 4G1) | DRSC17218 | 7.8 |
| bol (boule) | DRSC08964 | -0.3 |
| bol (boule) | DRSC10444 | -0.1 |
| bol (boule) | DRSC11329 | 0.2 |
| CG17211 | DRSC02587 | -0.3 |
| CG14370 | DRSC14832 | -0.2 |
| Best4 (Bestrophin 4) | DRSC10792 | -0.3 |
| CkIIalpha (casein kinase IIalpha) | DRSC11946 | 1.1 |
| CG3358 | DRSC04992 | -0.3 |
| Acp63F (Accessory gland protein 63F) | DRSC08137 | -0.2 |
| Rab39 | DRSC17827 | -0.3 |
| slbo (slow border cells) | DRSC04716 | -0.2 |
| CG30460 | DRSC06559 | -0.1 |
| CG30460 | DRSC06560 | 4.2 |
| CG13154 | DRSC06279 | 0.3 |
| Rexo5 (RNA exonuclease 5) | DRSC10981 | -0.2 |
| CG12692 | DRSC17881 | -0.3 |
| Vm26Ab (Vitelline membrane 26Ab) | DRSC03473 | -0.4 |
| Pal1 (Peptidyl-alpha-hydroxyglycine-alpha-amidating lyase 1) | DRSC06106 | -0.3 |
| CG34305 | DRSC11995 | -0.5 |
| Drp1 (Dynamin related protein 1) | DRSC00574 | -0.2 |
| bnl (branchless) | DRSC13377 | -0.3 |
| bnl (branchless) | DRSC16913 | 1 |
| Akt (Akt kinase) | DRSC14108 | 0.1 |
| mei-P26 (meiotic P26) | DRSC17735 | 2.6 |
| bdl (borderless) | DRSC00271 | -0.3 |
| mRpL3 (mitochondrial ribosomal protein L3) | DRSC20100 | 1.6 |
| zuc (zucchini) | DRSC02160 | -0.3 |
| PDCD-5 (Programmed Cell Death 5) | DRSC09955 | -0.4 |
| CG31952 | DRSC00428 | -0.4 |
| Acadvl (Acyl-CoA dehydrogenase very long chain) | DRSC07022 | 2.5 |
| CG12662 | DRSC17865 | -0.3 |
| lig (lingerer) | DRSC07246 | 1.6 |
| lig (lingerer) | DRSC07247 | 0.1 |
| CadN2 + CG42830 | DRSC03062 | -0.3 |
| CadN2 + CG42830 | DRSC03063 | -0.4 |
| CadN2 + CG42830 | DRSC03064 | 0 |
| PGRP-SC1b (Peptidoglycan recognition protein SC1b) | DRSC07215 | -0.3 |
| mldr (mulder) | DRSC18100 | -0.2 |
| TTLL1B (Tubulin tyrosine ligase-like 1B) | DRSC08594 | -0.3 |
| CG33124 | DRSC00298 | -0.2 |
| nSyb (neuronal Synaptobrevin) | DRSC08727 | 0 |
| CG12219 | DRSC17829 | -0.2 |
| RabX2 | DRSC18234 | -0.2 |
| CG14947 | DRSC02429 | -0.4 |
| Tango5 (Transport and Golgi organization 5) | DRSC18023 | -0.5 |
| jim | DRSC11889 | -0.3 |
| CG43736 + CG33692 (retired record) | DRSC18370 | -0.6 |
| CG43736 + CG33692 (retired record) | DRSC18371 | -0.3 |
| CG31019 | DRSC13994 | -0.2 |
| GstD3 (Glutathione S transferase D3) | DRSC15571 | -0.4 |
| Ir51a (Ionotropic receptor 51a) | DRSC06256 | -0.2 |
| 5-HT2A (5-hydroxytryptamine (serotonin) receptor 2A) | DRSC11990 | -0.2 |
| CG18662 | DRSC02691 | -0.2 |
| Sk1 (Sphingosine kinase 1) | DRSC19774 | -0.1 |
| CG31140 | DRSC13649 | -0.3 |
| CG31140 | DRSC14603 | -0.3 |
| CG31140 | DRSC15904 | -0.2 |
| ry (rosy) | DRSC17048 | -0.3 |
| Ctu1 (Cytosolic thiouridylase subunit 1) | DRSC07069 | -0.3 |
| CG8230 | DRSC05931 | -0.4 |
| CG14646 | DRSC12232 | -0.3 |
| Antp (Antennapedia) | DRSC12490 | 0 |
| CNT2 (Concentrative nucleoside transporter 2) | DRSC07073 | -0.3 |
| CG42703 | DRSC03973 | -0.7 |
| Lmx1a (LIM homeobox transcription factor 1 alpha) | DRSC09726 | -0.1 |
| Lmx1a (LIM homeobox transcription factor 1 alpha) | DRSC10275 | 0.5 |
| CG5214 | DRSC15739 | -0.3 |
| Cyp4p3 (Cytochrome P450 4p3) | DRSC07374 | -0.2 |
| Pfdn5 (Prefoldin 5) | DRSC16183 | -0.3 |
| CG14354 | DRSC14817 | -0.3 |
| CadN (Cadherin-N) | DRSC03286 | -0.2 |
| wake (wide awake) | DRSC16148 | -0.3 |
| wake (wide awake) | DRSC16149 | -0.1 |
| CG31517 | DRSC13010 | 0.1 |
| Gdi (GDP dissociation inhibitor) | DRSC03330 | -0.5 |
| CG13078 | DRSC02182 | -0.3 |

Laid out differently: results already given.
CG31140 [DRSC14603]
- z-score, replicate 1: -0.3

CG31140 [DRSC15904]
- z-score, replicate 1: -0.2

ry (rosy) [DRSC17048]
- z-score, replicate 1: -0.3

Ctu1 (Cytosolic thiouridylase subunit 1) [DRSC07069]
- z-score, replicate 1: -0.3

CG8230 [DRSC05931]
- z-score, replicate 1: -0.4
